From publication PMC1790709 come the findings set out here.

These are yes or no findings as the source states them, for the method shown. Some binding calls cover weakened binding; strength is not graded here.

The experiment addresses T1, C-terminal domain of mouse α-dystrobrevin (amino acids 461-554) (mouse) (UniProt Q9D2N4).
T1 sequence: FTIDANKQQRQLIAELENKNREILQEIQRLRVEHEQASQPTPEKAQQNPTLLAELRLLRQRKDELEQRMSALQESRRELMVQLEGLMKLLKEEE
Put plainly: two-hybrid; pBHA-based bait and pGAD10-based prey constructs co-transformed into L40 S. cerevisiae; activation of LacZ (X-gal hydrolysis) and HIS3 (growth on histidine-depleted minimal medium) reporter genes. (In general: A reporter such as luciferase makes a cellular process visible.)

B1: C-terminal domain of mouse dystrophin (amino acids 3484-3600) (domain or fragment, UniProt P11531 3484-3600)
chain: PAQILISLESEERGELERILADLEEENRNLQAEYDRLKQQHEHKGLSPLPSPPEMMPTSPQSPRDAELIAEAKLLRQHKGRLEARMQILEDHNKQLESQLHRLRQLLEQPQAEAKVN
As to B1, the binding result is given as “binds”.
